# Measurements as given in the supplement of paper PMC8728848.
# This is one part of the list.
# B1: OS9 (Arabidopsis thaliana) (protein)
# chain: MRGSHHHHHHGMASMTGGQQMGRDLYDDDDKSRLQIFPAHLVGTFSRNNREPKYKIEFLPEDSPFHPGDNLESMVMLDKHGNRFLCYLPKEEKATSGWTSSQQNISTVMMETQQLVKLKTPDELLQPLSEKCLFRQEGWWSYEFCHQKYVRQLHVEDENKIVQEFFLGTFDPEATAAFNQTVSDASTDASQRYHSHVYTNGTTCDLTGSPAEVEVRFVCAETRAMVTSITELSTCKYALTVQCPTLCKHPLFQLEKPVSHTIHCNAIPVEEDATRNKEEQAVDESPKMIADS
# How the values were obtained:
# Assay in all cases: glycan array binding signal (z-score within array); higher = stronger binding
# Conditions in all cases: glycan notation: IUPAC condensed, linker removed; mutation: R201A
# [1] = biological target: Neu5Ac(a2-6)Gal(b1-4)GlcNAc(b1-3)Gal(b1-4)GlcNAc(b1-3)Gal(b1-4)GlcNAc(b1-2)Man(a1-3)[Neu5Ac(a2-6)Gal(b1-4)GlcNAc(b1-3)Gal(b1-4)GlcNAc(b1-3)Gal(b1-4)GlcNAc(b1-2)Man(a1-6)]GalNAc
# Outline: (§1)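 The binding signal is a Z-score computed within each array and averaged over linkers. Arrays of the same protein sequence at different concentrations or buffers were also averaged together. Data originate from 3228 arrays in the Consortium for Functional Glycomics database, kept only where the protein sequence was available.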
# [2] = biological target: Neu5Ac(a2-6)Gal(b1-4)GlcNAc(b1-3)Gal(b1-4)GlcNAc(b1-3)GalNAc
# Outline: as §1
# [3] = biological target: Neu5Ac(a2-6)Gal(b1-4)GlcNAc(b1-3)Gal(b1-4)GlcNAc(b1-3)[Neu5Ac(a2-6)Gal(b1-4)GlcNAc(b1-3)Gal(b1-4)GlcNAc(b1-6)]GalNAc
# Outline: as §1
# [4] = biological target: Neu5Ac(a2-6)Gal(b1-4)GlcNAc(b1-3)Gal(b1-4)GlcNAc(b1-6)[Gal(b1-3)]GalNAc
# Outline: as §1
# [5] = biological target: Neu5Ac(a2-6)Gal(b1-4)GlcNAc(b1-3)Gal(b1-4)[Fuc(a1-3)]GlcNAc(b1-3)Gal(b1-4)[Fuc(a1-3)]GlcNAc
# Outline: as §1
# [6] = biological target: Neu5Ac(a2-6)Gal(b1-4)GlcNAc(b1-3)GalNAc
# Outline: as §1
# [7] = biological target: Neu5Ac(a2-6)Gal(b1-4)GlcNAc(b1-3)[Neu5Ac(a2-6)Gal(b1-4)GlcNAc(b1-6)]GalNAc
# Outline: as §1
# [8] = biological target: Neu5Ac(a2-6)Gal(b1-4)GlcNAc(b1-6)GalNAc
# Outline: as §1
# [9] = biological target: Neu5Ac(a2-6)Gal(b1-4)GlcNAc(b1-6)[Gal(b1-3)GlcNAc(b1-3)]Gal(b1-4)Glc
# Outline: as §1
# [10] = biological target: Neu5Ac(a2-6)Gal(b1-4)GlcNAc(b1-6)[Gal(b1-3)]GalNAc
# Outline: as §1
# [11] = biological target: Neu5Ac(a2-6)Gal(b1-4)GlcNAc6S
# Outline: as §1
# Neu5Ac(a2-6)GalNAc = biological target: Neu5Ac(a2-6)GalNAc
# Outline: as §1
# [12] = biological target: Neu5Ac(a2-6)GalNAc(b1-4)GlcNAc
# Outline: as §1
# [13] = biological target: Neu5Ac(a2-6)GalNAc(b1-4)GlcNAc6S
# Outline: as §1
# [14] = biological target: Neu5Ac(a2-6)GlcNAc(b1-4)GlcNAc
# Outline: as §1
# [15] = biological target: Neu5Ac(a2-6)GlcNAc(b1-4)GlcNAc(b1-4)GlcNAc
# Outline: as §1
# Neu5Ac(a2-8)Neu5Ac = biological target: Neu5Ac(a2-8)Neu5Ac
# Outline: as §1
# [16] = biological target: Neu5Ac(a2-8)Neu5Ac(a2-3)Gal(b1-3)GalNAc(b1-4)[Neu5Ac(a2-3)]Gal(b1-4)Glc
# Outline: as §1
# [17] = biological target: Neu5Ac(a2-8)Neu5Ac(a2-3)Gal(b1-3)GalNAc(b1-4)[Neu5Ac(a2-8)Neu5Ac(a2-3)]Gal(b1-4)Glc
# Outline: as §1
# [18] = biological target: Neu5Ac(a2-8)Neu5Ac(a2-3)Gal(b1-4)Glc
# Outline: as §1
# [19] = biological target: Neu5Ac(a2-8)Neu5Ac(a2-3)Gal(b1-4)GlcNAc
# Outline: as §1
# [20] = biological target: Neu5Ac(a2-8)Neu5Ac(a2-3)[Gal(b1-3)GalNAc(b1-4)]Gal(b1-4)Glc
# Outline: as §1
# [21] = biological target: Neu5Ac(a2-8)Neu5Ac(a2-3)[GalNAc(b1-4)]Gal(b1-4)Glc
# Outline: as §1
# [22] = biological target: Neu5Ac(a2-8)Neu5Ac(a2-8)Neu5Ac
# Outline: as §1
# [23] = biological target: Neu5Ac(a2-8)Neu5Ac(a2-8)Neu5Ac(a2-3)Gal(b1-4)Glc
# Outline: as §1
# [24] = biological target: Neu5Ac(a2-8)Neu5Ac(a2-8)Neu5Ac(a2-3)[Gal(b1-3)GalNAc(b1-4)]Gal(b1-4)Glc
# Outline: as §1
# [25] = biological target: Neu5Ac(a2-8)Neu5Ac(a2-8)Neu5Ac(a2-3)[GalNAc(b1-4)]Gal(b1-4)Glc
# Outline: as §1
# [26] = biological target: Neu5Ac(a2-8)Neu5Ac(a2-8)Neu5Ac(a2-8)Neu5Ac(a2-3)[GalNAc(b1-4)]Gal(b1-4)Glc
# Outline: as §1
# [27] = biological target: Neu5Ac(a2-8)Neu5Gc(a2-3)Gal(b1-4)GlcNAc
# Outline: as §1
# [28] = biological target: Neu5Ac(b2-6)Gal(b1-4)GlcNAc
# Outline: as §1
# Neu5Ac(b2-6)GalNAc = biological target: Neu5Ac(b2-6)GalNAc
# Outline: as §1
# [29] = biological target: Neu5Ac9Ac(a2-3)Gal(b1-3)GlcNAc
# Outline: as §1
# [30] = biological target: Neu5Ac9Ac(a2-3)Gal(b1-4)GlcNAc
# Outline: as §1
# [31] = biological target: Neu5Ac9Ac(a2-6)Gal(b1-4)GlcNAc
# Outline: as §1
# [32] = biological target: Neu5Gc(a2-3)Gal(b1-3)GlcNAc
# Outline: as §1
# [33] = biological target: Neu5Gc(a2-3)Gal(b1-3)[Fuc(a1-4)]GlcNAc
# Outline: as §1
# Neu5Gc(a2-3)Gal(b1-4)Glc = biological target: Neu5Gc(a2-3)Gal(b1-4)Glc
# Outline: as §1
# [34] = biological target: Neu5Gc(a2-3)Gal(b1-4)GlcNAc
# Outline: as §1
# [35] = biological target: Neu5Gc(a2-3)Gal(b1-4)GlcNAc(b1-3)Gal(b1-4)GlcNAc(b1-2)Man(a1-3)[Neu5Gc(a2-3)Gal(b1-4)GlcNAc(b1-3)Gal(b1-4)GlcNAc(b1-2)Man(a1-6)]Man(b1-4)GlcNAc(b1-4)GlcNAc
# Outline: as §1
# [36] = biological target: Neu5Gc(a2-3)Gal(b1-4)[Fuc(a1-3)]GlcNAc
# Outline: as §1
# [37] = biological target: Neu5Gc(a2-6)Gal(b1-4)GlcNAc
# Outline: as §1
# Neu5Gc(a2-6)GalNAc = biological target: Neu5Gc(a2-6)GalNAc
# Outline: as §1
# [38] = biological target: Neu5Gc(a2-8)Neu5Ac(a2-3)Gal(b1-4)GlcNAc
# Outline: as §1
# [39] = biological target: Neu5Gc(a2-8)Neu5Gc(a2-3)Gal(b1-4)GlcNAc
# Outline: as §1
# [40] = biological target: Neu5Gc(a2-8)Neu5Gc(a2-3)Gal(b1-4)GlcNAc(b1-3)Gal(b1-4)GlcNAc
# Outline: as §1
binder,measurement,setting,value
B1,glycan array binding signal (z-score),[1],-0.56
same,glycan array binding signal (z-score),[2],0.709
same,glycan array binding signal (z-score),[3],-0.858
same,glycan array binding signal (z-score),[4],1.03
same,glycan array binding signal (z-score),[5],-0.341
same,glycan array binding signal (z-score),[6],-0.858
same,glycan array binding signal (z-score),[7],0.097
same,glycan array binding signal (z-score),[8],0.465
same,glycan array binding signal (z-score),[9],-0.933
same,glycan array binding signal (z-score),[10],-0.582
same,glycan array binding signal (z-score),[11],0.336
same,glycan array binding signal (z-score),Neu5Ac(a2-6)GalNAc,-0.021
same,glycan array binding signal (z-score),[12],-0.088
same,glycan array binding signal (z-score),[13],-0.349
same,glycan array binding signal (z-score),[14],-0.223
same,glycan array binding signal (z-score),[15],-0.726
same,glycan array binding signal (z-score),Neu5Ac(a2-8)Neu5Ac,-0.57
same,glycan array binding signal (z-score),[16],0.773
same,glycan array binding signal (z-score),[17],0.862
same,glycan array binding signal (z-score),[18],0.342
same,glycan array binding signal (z-score),[19],-0.573
same,glycan array binding signal (z-score),[20],-0.319
same,glycan array binding signal (z-score),[21],0.744
same,glycan array binding signal (z-score),[22],-0.396
same,glycan array binding signal (z-score),[23],-0.398
same,glycan array binding signal (z-score),[24],-0.453
same,glycan array binding signal (z-score),[25],-0.425
same,glycan array binding signal (z-score),[26],0.783
same,glycan array binding signal (z-score),[27],-0.179
same,glycan array binding signal (z-score),[28],-0.927
same,glycan array binding signal (z-score),Neu5Ac(b2-6)GalNAc,-0.749
same,glycan array binding signal (z-score),[29],-0.763
same,glycan array binding signal (z-score),[30],-0.323
same,glycan array binding signal (z-score),[31],0.646
same,glycan array binding signal (z-score),[32],-0.795
same,glycan array binding signal (z-score),[33],-0.288
same,glycan array binding signal (z-score),Neu5Gc(a2-3)Gal(b1-4)Glc,0.157
same,glycan array binding signal (z-score),[34],-0.006
same,glycan array binding signal (z-score),[35],-0.905
same,glycan array binding signal (z-score),[36],-0.86
same,glycan array binding signal (z-score),[37],-0.137
same,glycan array binding signal (z-score),Neu5Gc(a2-6)GalNAc,1.59
same,glycan array binding signal (z-score),[38],-0.473
same,glycan array binding signal (z-score),[39],-0.418
same,glycan array binding signal (z-score),[40],-1.24

# Retrieved one by one from above, four records:
binder,measurement,setting,value
B1,glycan array binding signal (z-score),Neu5Gc(a2-6)GalNAc,1.59
same,glycan array binding signal (z-score),[16],0.773
same,glycan array binding signal (z-score),[2],0.709
same,glycan array binding signal (z-score),[8],0.465
